Values from PubChem BioAssay AID652272 (Drosophila RNAi Screening Center, 2013).
The deposit covers about 21,000 reagents; below is an unselected part of those with a known target gene and a result. Of all reagents, 503 (2.4%) were called active. 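Raw plate light values, not normalised; calls rest on replicate z-scores that were not deposited; hits include reporter decreases as well as increases.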 Reagents against one gene are numbered here. Names joined by + are all predicted targets of the reagent. Not stated in the record: the amount of reagent, the time to read-out.

Purpose: 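Finding fly genes that regulate Hedgehog signal transduction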 (primary screen)
Cell system: Drosophila clone 8 (Cl8) cells
Reagents: long dsRNA against Drosophila genes
Detection: 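Firefly light from a Hedgehog-responsive ptc promoter reporter and Renilla reference light, both read on a plate reader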
Reading the numbers: firefly Hh reporter signal: higher = more ptc reporter light; Renilla reference signal: higher = more Renilla control light
Active means: 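Called a hit if the two-replicate mean z-score lies below -2 or above +3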
Calls: active = hit: reporter lowered or raised; inactive = not a hit

predicted target	reagent no.	firefly Hh reporter signal, replicate 1	firefly Hh reporter signal, replicate 2	firefly Hh reporter signal, replicate 3	Renilla reference signal, replicate 1	Renilla reference signal, replicate 2	Outcome
alpha-Est9	1	65591	1.20e5		2048	3451	inactive
grass	1	80932	95318		2744	2628	inactive
rgn	1	98739	82076		4265	2994	inactive
Obp56e	1	80443	75189		2357	5488	inactive
Cyp303a1	1	1.01e5	47517		2730	4499	inactive
CG32112	1	56897	65265	88250	7313	6780	inactive
CG14406	1	90037	1.71e5		1697	6976	inactive
trio	1	91865	3.10e5		2459	10933	inactive
trio	2	1.40e5	66593		3728	1803	active
trio	3	86253	37673		2864	3129	inactive
CG34288	1	1872	2.35e5		384	4262	inactive
CG42496 + Ppcdc	1	5.95e5	74423	1.13e5	4658	1261	inactive
pnr	1	1.73e5	1.07e5		7096	4673	inactive
betaGlu	1	81040	57572		2075	2080	inactive
CG15878	1	63714	34122		1661	2936	inactive
CG7886	1	73632	74282		2646	2064	inactive
CG32982	1	3.80e5	1.49e5		23373	7868	inactive
CG32982	2	1.29e5	87909		2979	7160	inactive
CG32982	3	1.27e5	6.87e5	85873	3286	39937	inactive
CG32982	4	1.09e5	64733		2929	5318	inactive
CG3335	1	55652	48225	42061	4256	3388	inactive
CG12784	1	82633	83872		3033	2566	inactive
eIF2Bdelta	1	92549	78579		3866	3142	inactive

As entered above:
Under “firefly Hh reporter signal, replicate 2”, grass reads 95318
Value for Cyp303a1 under “Renilla reference signal, replicate 2”: 4499
For “Outcome”, CG32982 #3 has inactive
For “Outcome”, CG7886 is entered as inactive
